Reference: the supplement of paper PMC11732987, “Enantioselective OTUD7B fragment discovery through chemoproteomics screening and high-throughput optimisation” (Communications Chemistry, 2025)
This is one part of the list. The data scatter; read single values as rough.

Chains of the proteins cited; added tags and fusions are not shown. Lines headed by an entry give the natural chain unless they say otherwise; changes in a name come on top. Residues count along the entry.
UniProt Q9Y2V7, 332-358: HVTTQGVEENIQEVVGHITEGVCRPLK
UniProt Q9Y2V7, 2-37: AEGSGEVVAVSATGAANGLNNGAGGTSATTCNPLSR
UniProt P26374: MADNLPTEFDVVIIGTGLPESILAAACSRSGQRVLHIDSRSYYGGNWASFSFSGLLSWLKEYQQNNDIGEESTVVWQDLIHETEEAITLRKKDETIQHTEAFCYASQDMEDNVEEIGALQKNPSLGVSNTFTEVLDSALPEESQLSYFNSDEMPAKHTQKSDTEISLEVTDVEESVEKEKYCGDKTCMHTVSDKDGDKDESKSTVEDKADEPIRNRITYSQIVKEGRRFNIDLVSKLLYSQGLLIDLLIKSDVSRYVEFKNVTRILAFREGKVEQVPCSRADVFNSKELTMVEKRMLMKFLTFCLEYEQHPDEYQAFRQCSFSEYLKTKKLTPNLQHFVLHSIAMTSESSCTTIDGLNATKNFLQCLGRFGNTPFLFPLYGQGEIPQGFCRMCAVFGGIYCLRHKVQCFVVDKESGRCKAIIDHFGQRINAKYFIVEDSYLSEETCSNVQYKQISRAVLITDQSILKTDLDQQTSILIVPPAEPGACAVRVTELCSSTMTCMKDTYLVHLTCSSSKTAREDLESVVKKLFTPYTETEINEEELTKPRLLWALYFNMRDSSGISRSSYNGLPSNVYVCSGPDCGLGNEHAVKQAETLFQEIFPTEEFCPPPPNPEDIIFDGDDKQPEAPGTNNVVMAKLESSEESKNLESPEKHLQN
UniProt O76071: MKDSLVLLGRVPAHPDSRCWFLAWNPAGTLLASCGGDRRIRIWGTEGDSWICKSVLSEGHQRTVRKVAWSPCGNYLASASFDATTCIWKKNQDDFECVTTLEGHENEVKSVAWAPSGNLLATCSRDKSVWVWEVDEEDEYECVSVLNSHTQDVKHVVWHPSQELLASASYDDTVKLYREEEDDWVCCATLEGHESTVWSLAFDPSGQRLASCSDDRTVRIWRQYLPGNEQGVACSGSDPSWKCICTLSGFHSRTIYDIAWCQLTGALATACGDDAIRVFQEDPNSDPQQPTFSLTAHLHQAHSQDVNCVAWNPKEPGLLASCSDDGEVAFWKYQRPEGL
UniProt Q9HAZ1: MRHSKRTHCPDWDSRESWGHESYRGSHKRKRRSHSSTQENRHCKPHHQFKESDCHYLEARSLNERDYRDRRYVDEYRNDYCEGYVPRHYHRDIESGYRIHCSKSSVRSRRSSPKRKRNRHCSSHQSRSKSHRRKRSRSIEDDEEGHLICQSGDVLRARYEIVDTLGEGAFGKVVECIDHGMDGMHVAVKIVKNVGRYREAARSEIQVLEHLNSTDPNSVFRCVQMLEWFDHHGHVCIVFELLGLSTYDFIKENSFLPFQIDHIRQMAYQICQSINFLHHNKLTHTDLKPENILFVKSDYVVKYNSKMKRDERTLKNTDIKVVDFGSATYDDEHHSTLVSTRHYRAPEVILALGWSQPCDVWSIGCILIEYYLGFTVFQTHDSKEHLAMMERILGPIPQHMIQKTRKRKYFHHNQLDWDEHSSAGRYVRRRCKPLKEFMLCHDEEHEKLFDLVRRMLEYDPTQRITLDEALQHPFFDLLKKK
UniProt Q9HAW4: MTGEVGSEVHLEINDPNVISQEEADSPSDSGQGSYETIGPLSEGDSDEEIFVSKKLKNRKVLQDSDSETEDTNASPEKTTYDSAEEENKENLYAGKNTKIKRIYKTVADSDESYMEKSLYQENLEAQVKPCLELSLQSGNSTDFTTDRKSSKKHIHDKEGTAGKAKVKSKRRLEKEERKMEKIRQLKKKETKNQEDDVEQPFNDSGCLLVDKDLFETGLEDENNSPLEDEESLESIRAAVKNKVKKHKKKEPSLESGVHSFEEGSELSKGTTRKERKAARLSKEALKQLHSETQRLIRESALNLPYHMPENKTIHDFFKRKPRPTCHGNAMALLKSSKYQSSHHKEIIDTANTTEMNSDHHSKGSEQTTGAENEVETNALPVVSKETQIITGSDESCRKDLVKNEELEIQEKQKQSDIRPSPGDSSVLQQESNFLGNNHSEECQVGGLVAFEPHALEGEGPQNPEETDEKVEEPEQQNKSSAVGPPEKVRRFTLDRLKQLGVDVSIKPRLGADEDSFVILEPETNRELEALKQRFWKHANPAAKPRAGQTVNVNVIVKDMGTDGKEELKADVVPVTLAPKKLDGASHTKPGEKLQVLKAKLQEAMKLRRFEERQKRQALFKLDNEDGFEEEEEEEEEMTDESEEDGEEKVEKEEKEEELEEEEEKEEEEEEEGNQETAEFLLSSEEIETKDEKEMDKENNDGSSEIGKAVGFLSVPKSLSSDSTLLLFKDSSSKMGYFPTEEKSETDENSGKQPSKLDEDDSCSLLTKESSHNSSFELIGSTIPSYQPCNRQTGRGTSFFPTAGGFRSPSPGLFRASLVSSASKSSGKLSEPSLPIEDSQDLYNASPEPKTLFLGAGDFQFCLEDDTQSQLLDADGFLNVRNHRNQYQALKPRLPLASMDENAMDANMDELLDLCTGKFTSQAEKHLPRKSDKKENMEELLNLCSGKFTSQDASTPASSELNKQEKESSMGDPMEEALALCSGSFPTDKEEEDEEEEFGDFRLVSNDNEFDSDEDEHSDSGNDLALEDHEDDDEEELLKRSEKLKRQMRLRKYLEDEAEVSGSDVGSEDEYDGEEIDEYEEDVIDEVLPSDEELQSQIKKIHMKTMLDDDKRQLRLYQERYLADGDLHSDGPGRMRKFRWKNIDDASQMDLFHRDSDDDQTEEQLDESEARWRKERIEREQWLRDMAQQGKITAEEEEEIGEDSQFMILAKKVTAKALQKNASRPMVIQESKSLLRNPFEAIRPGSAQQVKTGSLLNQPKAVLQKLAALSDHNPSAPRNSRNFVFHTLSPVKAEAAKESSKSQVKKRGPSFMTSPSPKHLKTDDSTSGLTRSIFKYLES
UniProt P62633: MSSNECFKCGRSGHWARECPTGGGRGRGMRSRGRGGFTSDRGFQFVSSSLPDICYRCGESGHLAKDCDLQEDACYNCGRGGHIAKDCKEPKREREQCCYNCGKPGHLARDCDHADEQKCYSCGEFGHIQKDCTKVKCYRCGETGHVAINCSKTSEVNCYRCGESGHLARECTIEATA
UniProt O75131: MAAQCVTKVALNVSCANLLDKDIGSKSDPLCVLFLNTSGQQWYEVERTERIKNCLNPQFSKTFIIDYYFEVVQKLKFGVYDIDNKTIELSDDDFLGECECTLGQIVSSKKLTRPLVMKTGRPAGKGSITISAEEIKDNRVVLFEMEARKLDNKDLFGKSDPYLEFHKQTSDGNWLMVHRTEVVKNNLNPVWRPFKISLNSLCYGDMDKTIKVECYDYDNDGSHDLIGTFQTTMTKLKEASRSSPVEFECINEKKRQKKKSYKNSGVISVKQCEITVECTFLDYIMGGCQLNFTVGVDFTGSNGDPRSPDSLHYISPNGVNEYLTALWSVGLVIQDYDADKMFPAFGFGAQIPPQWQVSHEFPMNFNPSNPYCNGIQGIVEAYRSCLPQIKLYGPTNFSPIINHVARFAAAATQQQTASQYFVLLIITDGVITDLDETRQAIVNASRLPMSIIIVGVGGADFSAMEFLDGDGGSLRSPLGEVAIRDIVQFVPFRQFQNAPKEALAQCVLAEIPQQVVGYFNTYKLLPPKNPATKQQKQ
UniProt P53621: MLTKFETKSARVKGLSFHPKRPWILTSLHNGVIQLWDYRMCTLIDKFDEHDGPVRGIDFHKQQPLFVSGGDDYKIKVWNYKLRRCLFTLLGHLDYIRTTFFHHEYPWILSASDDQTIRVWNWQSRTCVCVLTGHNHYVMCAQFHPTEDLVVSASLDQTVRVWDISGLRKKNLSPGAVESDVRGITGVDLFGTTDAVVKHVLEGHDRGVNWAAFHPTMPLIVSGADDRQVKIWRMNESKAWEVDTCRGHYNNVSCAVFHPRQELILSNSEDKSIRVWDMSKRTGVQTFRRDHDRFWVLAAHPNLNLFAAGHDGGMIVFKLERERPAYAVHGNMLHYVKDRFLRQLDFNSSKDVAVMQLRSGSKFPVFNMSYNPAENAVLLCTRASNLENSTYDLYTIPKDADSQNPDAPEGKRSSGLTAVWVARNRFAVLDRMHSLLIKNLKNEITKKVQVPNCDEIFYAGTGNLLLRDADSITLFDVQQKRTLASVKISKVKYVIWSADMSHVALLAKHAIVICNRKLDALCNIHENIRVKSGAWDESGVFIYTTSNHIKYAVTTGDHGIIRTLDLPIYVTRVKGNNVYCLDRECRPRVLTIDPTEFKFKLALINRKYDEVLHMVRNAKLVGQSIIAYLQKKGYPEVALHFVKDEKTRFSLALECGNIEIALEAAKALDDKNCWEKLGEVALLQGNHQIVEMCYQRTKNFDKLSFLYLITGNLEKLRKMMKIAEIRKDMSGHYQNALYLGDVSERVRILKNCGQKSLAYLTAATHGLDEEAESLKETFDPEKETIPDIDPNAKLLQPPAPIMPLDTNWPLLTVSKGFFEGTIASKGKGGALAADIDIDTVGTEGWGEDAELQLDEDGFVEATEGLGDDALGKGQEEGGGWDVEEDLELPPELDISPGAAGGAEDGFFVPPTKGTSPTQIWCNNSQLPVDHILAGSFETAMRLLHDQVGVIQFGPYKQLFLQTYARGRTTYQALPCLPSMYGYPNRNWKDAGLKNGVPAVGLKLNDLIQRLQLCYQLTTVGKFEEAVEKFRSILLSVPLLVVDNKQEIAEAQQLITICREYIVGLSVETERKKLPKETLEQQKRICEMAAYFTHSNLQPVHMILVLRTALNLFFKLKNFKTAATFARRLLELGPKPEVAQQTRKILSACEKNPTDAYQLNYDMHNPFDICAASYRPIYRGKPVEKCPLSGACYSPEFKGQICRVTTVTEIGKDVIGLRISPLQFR
UniProt Q86VU5: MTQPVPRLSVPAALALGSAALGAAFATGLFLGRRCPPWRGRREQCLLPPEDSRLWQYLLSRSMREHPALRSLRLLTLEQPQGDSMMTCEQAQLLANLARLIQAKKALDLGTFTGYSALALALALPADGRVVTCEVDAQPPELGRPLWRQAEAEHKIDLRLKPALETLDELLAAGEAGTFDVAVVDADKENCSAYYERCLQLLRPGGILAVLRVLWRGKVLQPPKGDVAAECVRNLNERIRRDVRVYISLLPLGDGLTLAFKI
UniProt P57737: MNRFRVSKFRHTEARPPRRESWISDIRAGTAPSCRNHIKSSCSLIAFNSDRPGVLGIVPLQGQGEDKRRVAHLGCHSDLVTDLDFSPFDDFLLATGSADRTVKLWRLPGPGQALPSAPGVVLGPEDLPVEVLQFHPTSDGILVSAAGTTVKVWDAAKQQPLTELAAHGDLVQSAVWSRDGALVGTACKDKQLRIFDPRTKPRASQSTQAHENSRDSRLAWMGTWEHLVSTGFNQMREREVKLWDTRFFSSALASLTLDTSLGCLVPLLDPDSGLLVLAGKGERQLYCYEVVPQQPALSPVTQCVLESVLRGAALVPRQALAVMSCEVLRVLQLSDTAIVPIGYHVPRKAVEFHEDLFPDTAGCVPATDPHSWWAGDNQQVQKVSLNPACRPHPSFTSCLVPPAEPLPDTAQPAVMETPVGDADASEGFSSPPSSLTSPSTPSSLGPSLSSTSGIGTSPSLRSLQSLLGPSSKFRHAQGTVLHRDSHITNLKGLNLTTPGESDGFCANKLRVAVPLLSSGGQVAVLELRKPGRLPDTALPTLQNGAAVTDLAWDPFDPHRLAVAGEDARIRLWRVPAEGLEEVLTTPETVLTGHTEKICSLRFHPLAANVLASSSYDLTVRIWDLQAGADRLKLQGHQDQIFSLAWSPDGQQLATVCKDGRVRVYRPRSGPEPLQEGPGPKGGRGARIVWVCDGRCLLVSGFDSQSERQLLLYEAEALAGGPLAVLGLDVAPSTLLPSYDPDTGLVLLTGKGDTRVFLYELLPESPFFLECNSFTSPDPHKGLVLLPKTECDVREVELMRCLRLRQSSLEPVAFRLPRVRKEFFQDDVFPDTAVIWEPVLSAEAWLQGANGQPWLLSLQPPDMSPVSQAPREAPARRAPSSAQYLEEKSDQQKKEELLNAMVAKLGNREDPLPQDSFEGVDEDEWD
UniProt Q99829: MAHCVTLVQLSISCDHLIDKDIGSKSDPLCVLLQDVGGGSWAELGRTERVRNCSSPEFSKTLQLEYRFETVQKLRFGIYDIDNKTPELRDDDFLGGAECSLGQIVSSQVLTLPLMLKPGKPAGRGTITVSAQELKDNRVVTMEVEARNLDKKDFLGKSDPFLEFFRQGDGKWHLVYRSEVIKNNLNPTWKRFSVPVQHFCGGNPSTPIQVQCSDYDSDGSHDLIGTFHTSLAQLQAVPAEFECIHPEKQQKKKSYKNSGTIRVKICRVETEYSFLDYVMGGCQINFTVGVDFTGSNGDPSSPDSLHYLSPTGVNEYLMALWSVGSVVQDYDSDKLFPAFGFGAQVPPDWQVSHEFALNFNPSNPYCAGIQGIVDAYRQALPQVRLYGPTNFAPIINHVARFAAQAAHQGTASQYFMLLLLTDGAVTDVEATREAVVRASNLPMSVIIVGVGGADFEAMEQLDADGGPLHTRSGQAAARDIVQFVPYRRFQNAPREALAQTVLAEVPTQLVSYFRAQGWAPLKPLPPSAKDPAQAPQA

Key:
[1] = compound: ClCC(=O)N[C@@H]1CCCc2ccccc12; assay: log2 mean competition ratio of IA-DTB cysteine labelling (DMSO/compound) (log2 ratio); higher = stronger cysteine engagement by compound; conditions: treatment time: 4 h, cell line lysate: HEK293T
Procedure: (§1)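 IA-DTB competitive cysteine chemoproteomics in HEK293T RIPA lysate. Lysates were treated with compound 29 or 30 at 50 or 200 µM for 4 h, then IA-DTB (500 µM, 1 h), trypsin-digested, NeutrAvidin-enriched and analysed by diaPASEF. Competition ratio = intensity DMSO / intensity compound (n=4 treated, n=64 DMSO); binding: mean log2 CR ≥ 1 and p ≤ 0.05 plus QC filters. Target is the cysteine site.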

[2] = compound: ClCC(=O)N[C@H]1CCCc2ccccc12; assay: as above; conditions: treatment time: 4 h, cell line lysate: HEK293T
Procedure: as §1

Q: For CLINT1 C231 (UniProt Q14677), which “log2 mean competition ratio” value ([1]; 50 µM) is on record?
A: Its value is -0.176.

Q: What about the “log2 mean competition ratio” value ([1]; 200 µM) of the same target?
A: The value was 0.678.

Q: And the “log2 mean competition ratio” value ([2]; 50 µM)?
A: The value was -0.32.

Q: What about the “log2 mean competition ratio” value ([2]; 200 µM) of the same target?
A: Its value is 0.0569.

Q: For COG6 C354 (UniProt Q9Y2V7), which “log2 mean competition ratio” value ([1]; 50 µM) is on record?
A: Its value is 0.232.

Q: What about the “log2 mean competition ratio” value ([1]; 200 µM) of the same target?
A: Its value is -0.154.

Q: And the “log2 mean competition ratio” value ([2]; 50 µM)?
A: Its value is 0.0277.

Q: And the “log2 mean competition ratio” value ([2]; 200 µM)?
A: Its value is 0.0161.

Q: What does the source list for COG6 C32 (UniProt Q9Y2V7)?
A: log2 mean competition ratio ([1]; 50 µM): -0.231; log2 mean competition ratio ([1]; 200 µM): -0.264; log2 mean competition ratio ([2]; 50 µM): -0.538; log2 mean competition ratio ([2]; 200 µM): -0.502

Q: Which results are given for CHML C320 (UniProt P26374)?
A: log2 mean competition ratio ([1]; 50 µM): -0.109; log2 mean competition ratio ([1]; 200 µM): 0.169; log2 mean competition ratio ([2]; 50 µM): 0.556; log2 mean competition ratio ([2]; 200 µM): 0.371

Q: Which results are given for CIAO1 C322 (UniProt O76071)?
A: log2 mean competition ratio ([1]; 50 µM): 0.37; log2 mean competition ratio ([1]; 200 µM): 0.0122; log2 mean competition ratio ([2]; 50 µM): 0.298; log2 mean competition ratio ([2]; 200 µM): 0.541

Q: Which results are given for CLK4 C81 (UniProt Q9HAZ1)?
A: log2 mean competition ratio ([1]; 50 µM): -0.0114; log2 mean competition ratio ([1]; 200 µM): 0.0048; log2 mean competition ratio ([2]; 50 µM): -0.715; log2 mean competition ratio ([2]; 200 µM): -0.104

Q: Which “log2 mean competition ratio” value ([1]; 50 µM) does the source give for CLSPN C944 (UniProt Q9HAW4) here?
A: The value was -0.258.

Q: What about the “log2 mean competition ratio” value ([1]; 200 µM) of the same target?
A: Its value is 0.192.

Q: And the “log2 mean competition ratio” value ([2]; 50 µM)?
A: The value was -0.285.

Q: What about the “log2 mean competition ratio” value ([2]; 200 µM) of the same target?
A: The value was 0.195.

Q: With CHORDC1 C211 (UniProt Q9UHD1) as the target, how does the “log2 mean competition ratio” value ([1]; 50 µM) read?
A: The value was -0.231.

Q: And the “log2 mean competition ratio” value ([1]; 200 µM)?
A: Its value is 0.108.

Q: What about the “log2 mean competition ratio” value ([2]; 50 µM) of the same target?
A: The value was -0.417.

Q: What about the “log2 mean competition ratio” value ([2]; 200 µM) of the same target?
A: The value was 0.107.

Q: For CNBP C161 (UniProt P62633), which “log2 mean competition ratio” value ([1]; 50 µM) is on record?
A: Its value is 0.11.

Q: What about the “log2 mean competition ratio” value ([1]; 200 µM) of the same target?
A: The value was 0.0363.

Q: What about the “log2 mean competition ratio” value ([2]; 50 µM) of the same target?
A: The value was 0.0675.

Q: And the “log2 mean competition ratio” value ([2]; 200 µM)?
A: Its value is 0.00816.

Q: CPNE3 C385 (UniProt O75131) was tested. Which “log2 mean competition ratio” value ([1]; 50 µM) did it give?
A: The value was -0.417.

Q: What about the “log2 mean competition ratio” value ([1]; 200 µM) of the same target?
A: The value was -0.149.

Q: And the “log2 mean competition ratio” value ([2]; 50 µM)?
A: Its value is -0.208.

Q: And the “log2 mean competition ratio” value ([2]; 200 µM)?
A: Its value is -0.147.

Q: For CNEP1R1 C110 (UniProt Q8N9A8), which “log2 mean competition ratio” value ([1]; 50 µM) is on record?
A: The value was -0.348.

Q: And the “log2 mean competition ratio” value ([1]; 200 µM)?
A: The value was -0.148.

Q: What about the “log2 mean competition ratio” value ([2]; 50 µM) of the same target?
A: Its value is -0.0646.

Q: What about the “log2 mean competition ratio” value ([2]; 200 µM) of the same target?
A: Its value is -0.0929.

Q: How did the “log2 mean competition ratio” value ([1]; 50 µM) turn out when COPA C522 (UniProt P53621) was run?
A: Its value is 0.185.

Q: What about the “log2 mean competition ratio” value ([1]; 200 µM) of the same target?
A: The value was -0.0244.

Q: And the “log2 mean competition ratio” value ([2]; 50 µM)?
A: The value was -0.563.

Q: And the “log2 mean competition ratio” value ([2]; 200 µM)?
A: Its value is -0.371.

Q: Which “log2 mean competition ratio” value ([1]; 50 µM) does the source give for COMTD1 C45 (UniProt Q86VU5) here?
A: The value was 0.411.

Q: What about the “log2 mean competition ratio” value ([1]; 200 µM) of the same target?
A: Its value is 0.266.

Q: And the “log2 mean competition ratio” value ([2]; 50 µM)?
A: The value was 0.614.

Q: And the “log2 mean competition ratio” value ([2]; 200 µM)?
A: The value was 0.274.

Q: With CORO7 C505 (UniProt P57737) as the target, how does the “log2 mean competition ratio” value ([1]; 50 µM) read?
A: The value was 0.0733.

Q: What about the “log2 mean competition ratio” value ([1]; 200 µM) of the same target?
A: Its value is -0.0872.

Q: And the “log2 mean competition ratio” value ([2]; 50 µM)?
A: The value was 0.581.

Q: What about the “log2 mean competition ratio” value ([2]; 200 µM) of the same target?
A: Its value is -0.0816.

Q: With CPNE1 C53 (UniProt Q99829) as the target, how does the “log2 mean competition ratio” value ([1]; 50 µM) read?
A: The value was 0.364.

Q: What about the “log2 mean competition ratio” value ([1]; 200 µM) of the same target?
A: Its value is -0.811.

Q: And the “log2 mean competition ratio” value ([2]; 50 µM)?
A: The value was 0.69.

Q: What about the “log2 mean competition ratio” value ([2]; 200 µM) of the same target?
A: Its value is -0.361.
